# Reference: the supplement of paper PMC11732987, “Enantioselective OTUD7B fragment discovery through chemoproteomics screening and high-throughput optimisation” (Communications Chemistry, 2025)
# Chains of the proteins cited; added tags and fusions are not shown. Lines headed by an entry give the natural chain unless they say otherwise; changes in a name come on top.
# UniProt Q5VUA4: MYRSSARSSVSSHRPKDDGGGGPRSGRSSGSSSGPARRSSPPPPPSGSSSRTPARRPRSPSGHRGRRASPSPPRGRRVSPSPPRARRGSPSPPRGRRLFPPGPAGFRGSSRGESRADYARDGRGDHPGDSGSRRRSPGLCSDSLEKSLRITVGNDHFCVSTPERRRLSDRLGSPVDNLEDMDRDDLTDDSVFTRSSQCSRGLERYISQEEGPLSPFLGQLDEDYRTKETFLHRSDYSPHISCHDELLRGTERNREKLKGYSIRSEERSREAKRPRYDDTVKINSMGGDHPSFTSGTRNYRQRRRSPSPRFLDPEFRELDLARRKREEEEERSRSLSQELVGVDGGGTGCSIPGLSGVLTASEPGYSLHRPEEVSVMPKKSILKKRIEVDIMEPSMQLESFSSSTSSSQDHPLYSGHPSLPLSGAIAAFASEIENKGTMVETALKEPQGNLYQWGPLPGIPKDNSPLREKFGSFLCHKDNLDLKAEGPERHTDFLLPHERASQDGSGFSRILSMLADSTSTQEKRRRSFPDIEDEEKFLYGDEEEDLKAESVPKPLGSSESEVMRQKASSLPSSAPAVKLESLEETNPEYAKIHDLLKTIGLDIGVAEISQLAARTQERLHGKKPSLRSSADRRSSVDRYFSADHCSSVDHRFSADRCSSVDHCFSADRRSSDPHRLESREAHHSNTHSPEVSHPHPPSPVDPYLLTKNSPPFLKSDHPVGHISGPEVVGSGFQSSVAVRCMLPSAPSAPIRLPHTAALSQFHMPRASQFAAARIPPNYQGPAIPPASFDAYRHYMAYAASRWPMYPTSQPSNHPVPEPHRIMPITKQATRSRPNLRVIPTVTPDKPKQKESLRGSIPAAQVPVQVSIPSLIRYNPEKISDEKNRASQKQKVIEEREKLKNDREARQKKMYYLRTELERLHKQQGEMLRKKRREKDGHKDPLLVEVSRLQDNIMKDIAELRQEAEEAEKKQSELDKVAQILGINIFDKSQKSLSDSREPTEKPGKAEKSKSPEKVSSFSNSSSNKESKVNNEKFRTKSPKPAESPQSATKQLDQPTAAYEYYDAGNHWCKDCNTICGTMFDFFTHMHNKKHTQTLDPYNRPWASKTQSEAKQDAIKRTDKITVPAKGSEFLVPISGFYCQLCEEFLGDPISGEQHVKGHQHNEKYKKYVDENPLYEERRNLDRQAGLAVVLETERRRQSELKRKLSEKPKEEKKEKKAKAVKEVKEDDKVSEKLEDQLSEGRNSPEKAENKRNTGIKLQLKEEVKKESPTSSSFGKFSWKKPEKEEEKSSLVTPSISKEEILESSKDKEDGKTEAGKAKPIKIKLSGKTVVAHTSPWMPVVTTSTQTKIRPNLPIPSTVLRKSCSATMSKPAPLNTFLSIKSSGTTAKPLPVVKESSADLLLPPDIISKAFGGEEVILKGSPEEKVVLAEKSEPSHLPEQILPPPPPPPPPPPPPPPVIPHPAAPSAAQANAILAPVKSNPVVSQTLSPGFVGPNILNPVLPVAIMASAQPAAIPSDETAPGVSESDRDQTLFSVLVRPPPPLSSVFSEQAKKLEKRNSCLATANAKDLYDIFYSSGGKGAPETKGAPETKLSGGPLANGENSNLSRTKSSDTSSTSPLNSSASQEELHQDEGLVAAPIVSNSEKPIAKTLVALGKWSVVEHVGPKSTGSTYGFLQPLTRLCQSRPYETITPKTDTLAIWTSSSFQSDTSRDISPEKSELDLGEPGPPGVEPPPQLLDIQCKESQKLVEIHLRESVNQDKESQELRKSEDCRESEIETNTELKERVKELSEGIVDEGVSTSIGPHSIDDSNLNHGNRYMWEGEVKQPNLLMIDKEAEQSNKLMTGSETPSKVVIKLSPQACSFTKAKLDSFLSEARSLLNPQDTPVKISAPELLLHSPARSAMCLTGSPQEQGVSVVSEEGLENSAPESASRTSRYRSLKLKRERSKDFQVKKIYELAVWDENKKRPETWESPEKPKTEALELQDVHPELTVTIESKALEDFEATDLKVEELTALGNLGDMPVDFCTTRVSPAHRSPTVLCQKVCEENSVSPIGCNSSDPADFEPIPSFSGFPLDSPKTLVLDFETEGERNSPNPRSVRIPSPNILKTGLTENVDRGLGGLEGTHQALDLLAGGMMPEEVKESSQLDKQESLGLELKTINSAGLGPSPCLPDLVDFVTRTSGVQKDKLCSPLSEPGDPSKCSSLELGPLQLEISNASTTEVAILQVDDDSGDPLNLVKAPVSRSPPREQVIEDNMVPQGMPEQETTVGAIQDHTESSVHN
# UniProt Q5BKZ1: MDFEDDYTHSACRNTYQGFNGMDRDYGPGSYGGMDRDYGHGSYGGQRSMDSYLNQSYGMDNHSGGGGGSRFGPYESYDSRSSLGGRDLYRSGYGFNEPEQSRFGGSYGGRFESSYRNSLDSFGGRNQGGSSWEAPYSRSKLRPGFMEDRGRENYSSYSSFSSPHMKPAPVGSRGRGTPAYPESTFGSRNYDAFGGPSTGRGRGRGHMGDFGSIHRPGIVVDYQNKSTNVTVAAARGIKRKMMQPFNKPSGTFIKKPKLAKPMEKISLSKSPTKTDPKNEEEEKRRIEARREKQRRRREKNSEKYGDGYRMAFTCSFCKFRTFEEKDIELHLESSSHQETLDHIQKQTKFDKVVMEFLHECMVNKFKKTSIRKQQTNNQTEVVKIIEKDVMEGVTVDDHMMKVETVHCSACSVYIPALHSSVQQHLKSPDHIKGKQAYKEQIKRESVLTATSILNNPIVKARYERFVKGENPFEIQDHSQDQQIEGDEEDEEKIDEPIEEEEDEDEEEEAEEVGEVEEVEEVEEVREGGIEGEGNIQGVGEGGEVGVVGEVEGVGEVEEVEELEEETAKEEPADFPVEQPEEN
# UniProt Q8N5P1: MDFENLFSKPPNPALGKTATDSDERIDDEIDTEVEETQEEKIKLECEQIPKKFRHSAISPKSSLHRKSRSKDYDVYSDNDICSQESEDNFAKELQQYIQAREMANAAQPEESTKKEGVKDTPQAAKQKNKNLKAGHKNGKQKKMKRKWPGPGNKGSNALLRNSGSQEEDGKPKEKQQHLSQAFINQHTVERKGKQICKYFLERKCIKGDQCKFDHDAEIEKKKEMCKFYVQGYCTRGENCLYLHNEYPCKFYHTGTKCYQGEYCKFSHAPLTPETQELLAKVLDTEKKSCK
# UniProt Q8TCF1: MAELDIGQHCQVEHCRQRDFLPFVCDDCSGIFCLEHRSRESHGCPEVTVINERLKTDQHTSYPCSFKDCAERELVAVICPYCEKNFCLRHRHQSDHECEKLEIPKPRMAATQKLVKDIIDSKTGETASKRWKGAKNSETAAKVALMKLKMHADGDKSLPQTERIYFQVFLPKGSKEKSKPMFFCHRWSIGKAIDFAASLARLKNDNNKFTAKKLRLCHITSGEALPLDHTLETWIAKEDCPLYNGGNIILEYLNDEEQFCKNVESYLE
# UniProt Q96KM6: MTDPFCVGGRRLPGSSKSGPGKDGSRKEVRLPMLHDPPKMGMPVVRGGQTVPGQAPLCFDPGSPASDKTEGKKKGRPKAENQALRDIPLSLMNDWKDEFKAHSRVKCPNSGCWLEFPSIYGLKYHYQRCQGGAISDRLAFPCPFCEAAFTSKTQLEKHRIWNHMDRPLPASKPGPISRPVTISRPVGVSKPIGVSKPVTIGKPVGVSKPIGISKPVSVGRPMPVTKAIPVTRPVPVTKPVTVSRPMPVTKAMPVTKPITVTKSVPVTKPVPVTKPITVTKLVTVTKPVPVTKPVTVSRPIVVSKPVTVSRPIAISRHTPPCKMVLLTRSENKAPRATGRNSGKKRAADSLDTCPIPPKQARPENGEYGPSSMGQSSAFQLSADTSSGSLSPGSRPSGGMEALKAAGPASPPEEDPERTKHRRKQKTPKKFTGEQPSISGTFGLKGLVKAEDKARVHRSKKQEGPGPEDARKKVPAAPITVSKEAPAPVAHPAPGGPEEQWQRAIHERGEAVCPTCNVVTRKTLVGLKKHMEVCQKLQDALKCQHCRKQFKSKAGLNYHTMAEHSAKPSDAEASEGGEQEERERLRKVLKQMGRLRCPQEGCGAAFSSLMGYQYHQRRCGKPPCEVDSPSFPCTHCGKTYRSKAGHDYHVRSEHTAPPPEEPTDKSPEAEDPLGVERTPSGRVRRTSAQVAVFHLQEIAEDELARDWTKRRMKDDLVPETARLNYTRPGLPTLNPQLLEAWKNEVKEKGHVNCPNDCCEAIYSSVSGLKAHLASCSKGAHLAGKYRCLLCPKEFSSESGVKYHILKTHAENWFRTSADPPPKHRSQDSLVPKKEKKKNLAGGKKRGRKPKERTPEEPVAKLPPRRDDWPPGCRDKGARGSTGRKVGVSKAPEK
# UniProt Q86WB0: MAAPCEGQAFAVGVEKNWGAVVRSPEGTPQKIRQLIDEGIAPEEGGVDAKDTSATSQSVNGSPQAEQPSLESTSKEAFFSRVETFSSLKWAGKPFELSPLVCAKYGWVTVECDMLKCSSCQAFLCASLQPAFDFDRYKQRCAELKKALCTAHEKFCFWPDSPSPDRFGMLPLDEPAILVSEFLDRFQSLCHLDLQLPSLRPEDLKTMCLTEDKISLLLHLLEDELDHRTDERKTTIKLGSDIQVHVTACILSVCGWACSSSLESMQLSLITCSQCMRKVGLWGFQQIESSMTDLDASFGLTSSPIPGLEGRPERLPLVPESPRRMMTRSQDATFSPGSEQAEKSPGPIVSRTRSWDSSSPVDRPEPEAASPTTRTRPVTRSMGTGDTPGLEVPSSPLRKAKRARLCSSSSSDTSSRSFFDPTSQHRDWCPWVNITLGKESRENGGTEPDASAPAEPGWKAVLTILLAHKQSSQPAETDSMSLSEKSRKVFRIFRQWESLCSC
# UniProt Q92610: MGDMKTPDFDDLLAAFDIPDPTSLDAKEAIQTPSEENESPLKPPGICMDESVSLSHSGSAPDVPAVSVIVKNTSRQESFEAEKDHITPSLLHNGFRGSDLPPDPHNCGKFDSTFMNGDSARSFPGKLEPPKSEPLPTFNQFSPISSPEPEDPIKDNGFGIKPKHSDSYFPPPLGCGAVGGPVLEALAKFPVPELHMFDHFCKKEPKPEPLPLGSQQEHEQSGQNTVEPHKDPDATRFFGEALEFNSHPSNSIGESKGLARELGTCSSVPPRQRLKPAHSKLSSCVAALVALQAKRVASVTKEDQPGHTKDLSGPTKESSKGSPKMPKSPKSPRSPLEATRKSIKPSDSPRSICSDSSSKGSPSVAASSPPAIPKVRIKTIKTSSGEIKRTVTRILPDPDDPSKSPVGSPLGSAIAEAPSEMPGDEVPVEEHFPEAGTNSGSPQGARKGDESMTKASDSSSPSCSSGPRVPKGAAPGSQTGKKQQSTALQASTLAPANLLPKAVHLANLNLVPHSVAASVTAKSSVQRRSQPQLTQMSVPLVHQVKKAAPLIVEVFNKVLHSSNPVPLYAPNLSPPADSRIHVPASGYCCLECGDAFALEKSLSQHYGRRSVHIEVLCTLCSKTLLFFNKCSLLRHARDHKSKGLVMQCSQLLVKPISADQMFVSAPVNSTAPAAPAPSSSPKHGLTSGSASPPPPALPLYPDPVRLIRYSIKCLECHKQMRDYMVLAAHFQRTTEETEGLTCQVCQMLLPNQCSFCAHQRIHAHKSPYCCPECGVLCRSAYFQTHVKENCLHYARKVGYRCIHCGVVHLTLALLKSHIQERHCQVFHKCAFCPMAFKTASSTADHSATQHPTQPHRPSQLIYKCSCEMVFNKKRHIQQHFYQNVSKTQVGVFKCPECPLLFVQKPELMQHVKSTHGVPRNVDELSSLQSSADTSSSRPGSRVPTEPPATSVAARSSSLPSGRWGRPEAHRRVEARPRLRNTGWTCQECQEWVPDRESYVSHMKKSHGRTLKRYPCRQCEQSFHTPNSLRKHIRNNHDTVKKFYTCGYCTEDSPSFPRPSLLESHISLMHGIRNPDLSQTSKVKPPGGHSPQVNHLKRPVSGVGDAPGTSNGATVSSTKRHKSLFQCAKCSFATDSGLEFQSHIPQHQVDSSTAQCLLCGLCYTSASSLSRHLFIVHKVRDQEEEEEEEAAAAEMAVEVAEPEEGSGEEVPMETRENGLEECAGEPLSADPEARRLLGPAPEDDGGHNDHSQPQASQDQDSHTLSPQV
# UniProt Q16600: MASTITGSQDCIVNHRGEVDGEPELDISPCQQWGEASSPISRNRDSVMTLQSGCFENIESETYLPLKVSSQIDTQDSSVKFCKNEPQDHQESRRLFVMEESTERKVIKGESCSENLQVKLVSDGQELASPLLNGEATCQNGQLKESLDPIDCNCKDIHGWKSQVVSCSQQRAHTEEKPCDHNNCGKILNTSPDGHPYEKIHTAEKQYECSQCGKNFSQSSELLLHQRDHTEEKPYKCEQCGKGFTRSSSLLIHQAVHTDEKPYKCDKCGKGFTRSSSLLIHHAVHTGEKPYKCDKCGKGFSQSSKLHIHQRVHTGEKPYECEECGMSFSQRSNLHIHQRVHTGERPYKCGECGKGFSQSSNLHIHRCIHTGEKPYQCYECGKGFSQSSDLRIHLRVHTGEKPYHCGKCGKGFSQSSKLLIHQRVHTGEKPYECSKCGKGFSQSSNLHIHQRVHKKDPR
# The other results are listed elsewhere or left out. The data scatter; read single values as rough.
# Compound: ClCC(=O)N[C@H]1CCCc2ccccc12
# Experiment: log2 mean competition ratio of IA-DTB cysteine labelling (DMSO/compound) (log2 ratio); higher = stronger cysteine engagement by compound
# Details: 200 µM; treatment time: 4 h; cell line lysate: HEK293T
# Description: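 IA-DTB competitive cysteine chemoproteomics in HEK293T RIPA lysate. Lysates were treated with compound 29 or 30 at 50 or 200 µM for 4 h, then IA-DTB (500 µM, 1 h), trypsin-digested, NeutrAvidin-enriched and analysed by diaPASEF. Competition ratio = intensity DMSO / intensity compound (n=4 treated, n=64 DMSO); binding: mean log2 CR ≥ 1 and p ≤ 0.05 plus QC filters. Target is the cysteine site.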
row,Target,log2 mean competition ratio
1,ZFAND5 C168 (UniProt O76080),0.217
2,ZMYM3 C1048 (UniProt Q14202),0.311
3,ZNF318 C2188 (UniProt Q5VUA4),0.351
4,ZNF326 C360 (UniProt Q5BKZ1),-0.22
5,ZFYVE1 C174 (UniProt Q9HBF4),-0.335
6,ZNF317 C127,-0.00881
7,ZNHIT6 C211 (UniProt Q9NWK9),-0.143
8,ZC3H8 C46 (UniProt Q8N5P1),0.139
9,ZDHHC20 C131 (UniProt Q5W0Z9),-0.0467
10,ZFAND1 C44 (UniProt Q8TCF1),0.178
11,ZNF432 C150,-0.0858
12,ZNF35 C156,0.128
13,ZNF264 C84,0.015
14,ZNF516 C114 (UniProt Q92618),0.325
15,ZC3HAV1 C96 (UniProt Q7Z2W4),0.126
16,ZMYM1 C159 (UniProt Q5SVZ6),-0.00755
17,ZNF512B C353 (UniProt Q96KM6),0.16
18,ZMYM4 C711 (UniProt Q5VZL5),0.0711
19,ZFP36L1 C173,-0.271

# Another view of some results above:
row	Target	log2 mean competition ratio
13	ZNF264 C84	0.015
14	ZNF516 C114 (UniProt Q92618)	0.325
17	ZNF512B C353 (UniProt Q96KM6)	0.16

# Following part:

row,Target,log2 mean competition ratio
1,ZDHHC4 C337 (UniProt Q9NPG8),0.217
2,ZNF276 C136,0.204
3,ZC3HC1 C149 (UniProt Q86WB0),-0.318
4,ZNF664 C131,-0.197
5,ZNF592 C463 (UniProt Q92610),-0.118
6,ZNF512 C540 (UniProt Q96ME7),0.00276
7,ZFP30 C328,-0.181
8,ZSCAN26 C169 (UniProt Q16670),-0.21
9,ZNF746 C385 (UniProt Q6NUN9),-0.107
10,ZNF574 C656 (UniProt Q6ZN55),-0.0505
11,ZNF106 C643 (UniProt Q9H2Y7),0.00297
12,ZW10 C346 (UniProt O43264),0.0131
13,ZNF239 C112 (UniProt Q16600),0.301
14,ZFYVE16 C313 (UniProt Q7Z3T8),0.125
15,ZDBF2 C1937,0.0937
16,ZNF618 C619,0.0102
17,ZFYVE16 C863 (UniProt Q7Z3T8),0.358
18,ZMYM1 C438 (UniProt Q5SVZ6),0.0938
